No constants are given. Whether binding was seen depends on the method and setting. Some entries that bind do so weakly or less than the wild type. One block for each binder: values may come before it.
Key:
[1] = biological target: T1, truncated CD117 ectodomain, Domains 1-3 (UniProt P10721 26-311, limits assumed, biotinylated); assay: BLI, truncated ectodomain on SA biosensor
T1 construct: domain: Domains 1-3; not shown: AviTag
Description: (§1) To identify the approximate binding epitopes of the VHH antibodies, truncated ectodomains were expressed as fusion polypeptides with an AviTag. Additionally, biotin is added to the protein during expression to allow capture of the material onto Streptavidin-coated (SA) biosensors. SA biosensors (Sartorius) were incubated with one of the truncated ectodomains. Full length CD117 ectodomain was used as a control. […] Except for P29 and P37, all others bind Domains 1-2 and Domains 1-3. Except for P37, all others bind Domains 1-4.

Amino acid sequences for entries named in this document (tags omitted). A change or cut given only in a name is not applied to a line headed by its entry. Residues count along the entry.
UniProt P10721: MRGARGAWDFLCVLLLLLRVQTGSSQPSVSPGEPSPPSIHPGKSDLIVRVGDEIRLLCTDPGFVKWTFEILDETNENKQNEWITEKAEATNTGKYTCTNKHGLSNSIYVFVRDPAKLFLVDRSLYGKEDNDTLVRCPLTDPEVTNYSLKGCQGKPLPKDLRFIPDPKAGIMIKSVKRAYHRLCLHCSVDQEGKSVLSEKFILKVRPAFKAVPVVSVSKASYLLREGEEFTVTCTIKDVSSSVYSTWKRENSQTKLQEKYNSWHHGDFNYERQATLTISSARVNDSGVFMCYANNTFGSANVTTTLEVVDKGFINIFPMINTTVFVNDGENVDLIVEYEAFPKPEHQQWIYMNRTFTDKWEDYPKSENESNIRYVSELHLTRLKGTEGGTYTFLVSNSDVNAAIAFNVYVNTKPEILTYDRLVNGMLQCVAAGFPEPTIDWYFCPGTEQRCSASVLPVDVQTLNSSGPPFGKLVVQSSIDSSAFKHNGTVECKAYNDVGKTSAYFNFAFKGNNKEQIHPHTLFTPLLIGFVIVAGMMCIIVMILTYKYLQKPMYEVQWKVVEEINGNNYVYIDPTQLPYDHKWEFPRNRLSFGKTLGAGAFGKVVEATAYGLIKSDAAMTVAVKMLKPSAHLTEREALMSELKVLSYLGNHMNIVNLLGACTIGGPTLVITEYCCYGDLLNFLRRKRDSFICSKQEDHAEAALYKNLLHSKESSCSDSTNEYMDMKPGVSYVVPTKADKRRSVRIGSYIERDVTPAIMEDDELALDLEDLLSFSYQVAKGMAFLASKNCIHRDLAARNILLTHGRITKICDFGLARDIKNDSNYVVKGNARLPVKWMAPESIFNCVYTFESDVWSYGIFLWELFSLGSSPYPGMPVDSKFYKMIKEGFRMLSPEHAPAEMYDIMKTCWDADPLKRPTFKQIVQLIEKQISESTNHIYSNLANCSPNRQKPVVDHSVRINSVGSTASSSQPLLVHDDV
human CD117 on cells (SKMEL-3 cells, CD34+ HSC): residues 26-976 of P10721

[2] = biological target: T2, truncated CD117 ectodomain, Domains 1-4 (UniProt P10721 26-410, limits assumed, biotinylated); assay: BLI, truncated ectodomain on SA biosensor
T2 construct: domain: Domains 1-4; not shown: AviTag
Description: as §1

[3] = biological target: T3, truncated CD117 ectodomain, Domains 1-2 (UniProt P10721 26-208, limits assumed, biotinylated); assay: BLI, truncated ectodomain on SA biosensor
T3 construct: domain: Domains 1-2; not shown: AviTag
Description: as §1

[4] = biological target: T4, truncated CD117 ectodomain, Domain 1 (UniProt P10721 26-112, limits assumed, biotinylated); assay: BLI, truncated ectodomain on SA biosensor
T4 construct: domain: Domain 1; not shown: AviTag
Description: as §1

human CD117 ectodomain = biological target: T5, human CD117 ectodomain (human, UniProt P10721 26-524, biotinylated (BirA co-expression) where captured on streptavidin biosensors); assay: flow cytometry and Octet
T5 construct: extracellular domain; also called cKIT; full length AviTagged CD117 ectodomain; not shown: C-terminal AviTag or His tag

[5] = biological target: human CD117 on cells (SKMEL-3 cells, CD34+ HSC) (human) (UniProt P10721); assay: flow cytometry, CD34+ HSC, bivalent Fc
[6] = biological target: human CD117 on cells (SKMEL-3 cells, CD34+ HSC) (human) (UniProt P10721); assay: flow cytometry, skMEL-3 cells, bivalent Fc

binding [1]: binds
binding [2]: binds
binding [3]: binds
B1: P38 (VHH)
VHH: EVQLVESGGGLVQAGGSLRLSCAASGRTSGSYVMGWFRQAPGKEREFVAAISWSAGMTYYADSVKGRFTISRDNAKNTVYLQMNSLKPEDTAVYYCAADQRGVPAYYSDYALYDYWGQGTQVTVSS
notes: also called P38/P72; anti-CD117 VHH P38

binding [4]: binds
binding [1]: binds
binding [2]: binds
binding [3]: binds
B2: P12 (VHH)
VHH: QVQLVESGGGLVQAGGSLRLSCTASGDTFSSYSMGWFRQGPGKEREFVGGIRWSGGTTYYADSVKGRFTISRDNAKNTVYLQMNSLKREDTAVYYCAAVRRRWLIWQEEEYDYWGQGTLVTVSS

binding (human CD117 ectodomain): binds
B3: P-0056 (Fc fusion)
chain: QVQLVESGGGLVQAGGSLRLSCAASGGTFSIYPVGWFRQAPGKQREFVAAIGWSASGTYYGDSVEGRFTVSRDNARSTVYLRMSSLKPDDTAVYYCAAASGSNWRLGAIDEYDSWGQGTQVTVSS
notes: the alignment instead labels 'P35/P57' and 'P32/P56'; also called P56; not shown: Fc fragment

binding [1]: binds
binding [2]: binds
binding [3]: binds
B4: P35 (VHH)
VHH: B3 chain
notes: also called anti-CD117 VHH P35

binding (human CD117 ectodomain): binds
binding [5]: binds
binding [6]: binds
B5: P-0057 (Fc fusion)
chain: QVQLVESGGGLVQAGDSLRLSCAASGRTFSSYAMGWFRQAPGKEREFVASITSSGLVAYYGDSVEARFTISRDNAKNTVYLQMDSLKPEDTAVYYCAARQYVGSGSYYLKKEGGYEYWGPGTQVTVSS
notes: the alignment instead labels 'P35/P57' and 'P32/P56'; also called P57; not shown: Fc fragment

binding [1]: binds
binding [2]: binds
binding [3]: binds
B6: P32 (VHH)
VHH: B5 chain
notes: also called anti-CD117 VHH P32

binding [1]: binds
binding [2]: binds
binding [3]: binds
B7: P31 (VHH)
VHH: EVQLVESGGGLVRAGGSLRLSCAASGRTFTYDARAWFRQAPGKEREFVAAISWSGGSTYYPNSMKGRFTISRDNAKNTVYLQMNSLKPEDTAVYYCAADESFPAYYSDYALYRYWGQGTLVTVSS
notes: also called P31/P55; anti-CD117 VHH P31

binding [1]: binds
binding [2]: binds
binding [3]: binds
B8: P27 (VHH)
VHH: EVQLVESGGGLVRAGGSLRLSCAASGRTTFSTYWLGWFRQAPGKNREFVAAISWSAGMAYYQDSKGRFTISRDNTKNTAYLQMNSLQPEDTAVYYCAAGRFHPIRVDTALYWAQGTQVTVSS
notes: also called P27/P60; anti-CD117 VHH P27

binding [2]: binds
B9: P29 (VHH)
VHH: QVHLVESGGGLVQAGGSLGLSCAASGHTFSNYAMGWFRQAPGKEREFVAAISWSGGSTLYADSVKGRFTISRDNGENTVYLQMNSLKPEDTAVYYCALDSTGVYGTGYVSSRKGRYEYWGQGTLVTVSS
notes: also called P29/P54; anti-CD117 VHH P29

binding [1]: binds
binding [2]: binds
binding [3]: binds
B10: P10 (VHH)
VHH: QVQLVESGGGLVQAGGSLRLSCVASGRTFSSYAMGWFRQGPGKEREFAAAILSNGLTTYYADSVKGRFTISRDNAKDTVYLQMNSLKPEDTANYYCAAAFTPEFRDGGIWDDASVDYWGQGTQVTVSS
notes: also called P10/P53; anti-CD117 VHH P10

Reference: US20260137802A1 (CRISPR THERAPEUTICS, published 2026)
